# Primary screen of a compound library

Measurements from “University of Dundee, Small-Polar-MMV Screening Library” (2021), ChEMBL document CHEMBL3988442.

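Whole-cell assay for inhibitors of Mycobacterium tuberculosis growth, labelled Cornell in the record; the read-out is not stated. The concentration is filed as 10 mM, unlikely as a test dose, so the dose is not known. Higher means stronger inhibition (inferred from two other growth screens of the library). About 53,000 compounds were tested under these conditions; 1.7% (about 900) showed 50% or more at least once.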

Values are the deposited “Percent Effect”, in %.
How 0% and 100% were set is not recorded. Most values in the screen are low, and negative values occur.
Compounds were drawn at random from those tested, without regard to their results.

SMILES	Percent Effect
COc1ccc(CN(C)C(=O)CN2CC(n3cc(C)cn3)C2)cc1F	-8.361%
O=C(NC1CCCN(c2ccccn2)C1)C1(c2ccccc2F)CC1 (stereo not drawn)	-27.34%
CCn1cncc1CN1CCc2nc3sccc3c(=O)n2CC1	47.13%
Cn1cc(NS(=O)(=O)CCOc2ccc(F)cc2)cn1	12.33%
Cc1cccc(CSc2nnc(C)n2CC(N)=O)c1	8.083%
Cc1cc(C)c(S(N)(=O)=O)cc1C(=O)NCCN1CCC(C)CC1	4.449%
O=C(O)C(F)(F)F.O=C(O)C(F)(F)F.O=C1CC2(CCN(Cc3cccnc3)C2)CN1c1ccc2c(c1)OCO2 (stereo not drawn)	-52.65%
Cc1nc(CN2CCN(C)C(=O)C23CCN(C(C)C)CC3)cs1.O=C(O)C(F)(F)F	10.68%
O=C(O)C(F)(F)F.[H][C@@]12COC[C@@H](C(=O)N3CCCCO3)[C@]1([H])CN(C1CCOCC1)C2	-0.5422%
[H][C@]12CC[C@@]3(N=C(C)N(CC(C)C)C3=O)[C@@]1([H])CN(C(=O)NCC(C)C)C2	-21.76%
CCOc1ccccc1C(=O)N(C)C(C)c1ccc(S(C)(=O)=O)cc1 (stereo not drawn)	-26.02%
CN1C(=O)CCN(C(=O)C2CCCCC2)c2ccccc21	-16.91%
CN(CC1(C)COC1)C(=O)c1cc(-c2ccn(C)n2)nc2ccccc12	-40.79%
Cc1cc(-c2cnc(N3CCSCC3)nc2C(C)C)on1	-8.973%
O=C(O)C(F)(F)F.O=C(c1cscn1)N1CCCC2(CCN2Cc2cccc(F)c2)C1 (stereo not drawn)	-2.347%
CC(C)OCc1noc(C2CCCOC2)n1 (stereo not drawn)	11.63%
COc1cccc(CN(Cc2ccco2)Cc2[nH]cnc2C)c1.O=C(O)CC(O)(CC(=O)O)C(=O)O	-15.02%
Cc1ccc(C(=O)N2CC[C@]3(C[C@@H](OCc4ccccn4)CO3)C2)nc1.O=C(O)C(F)(F)F.O=C(O)C(F)(F)F	-8.292%
COc1cccc(CC2CN(C(=O)c3ccnn3C)CCO2)c1 (stereo not drawn)	9.387%
COc1ccc(CNCC2CCN(c3ccccc3OC)C2)cc1O (stereo not drawn)	59.98%
CCCn1nnnc1COC(=O)C1COc2ccc(Cl)cc2C1 (stereo not drawn)	-6.175%
Cc1cc(C(=O)Nc2ccc3c(c2)N(C)CCN(C)C3)on1	-18.95%
Cc1cc(C)c(CNC(=O)N2CCCC2c2cc(C)on2)c(=O)[nH]1 (stereo not drawn)	-62.16%
CN1CCC(Cc2cccc(-c3cc(F)ccc3C(=O)O)n2)CC1	4.879%
Cc1ccc(-c2nn(-c3cccc(F)c3)cc2CN(C)CCO)o1	-21.79%
CCN(CC)C(CNS(=O)(=O)c1ccc(C(C)=O)cc1)c1ccco1 (stereo not drawn)	4.011%
CCC[C@@H]1CN(Cc2ccc(N(C)C)nc2)C[C@H]1N(C)C	-4.019%
CCc1ocnc1C(=O)N1CCOC(CCCC(C)C)C1 (stereo not drawn)	13.47%
O=C(N1CCCCC1)N1CCCC(c2ncncc2-c2ccncc2)C1 (stereo not drawn)	2.88%
CN(c1ccncn1)C1CC2(CCN(C(=O)CCc3cccs3)C2)C1 (stereo not drawn)	1.258%
CCN(c1ccccc1)S(=O)(=O)c1cc(C(=O)O)cc2c1CCC2	-10.22%
Cn1ncc2c(=O)[nH]c(CN(Cc3cccc(F)c3)C3CC3)nc21	9.29%
O=C(O)C(F)(F)F.O=C(O)C(F)(F)F.[H][C@]12CC(=O)N(Cc3cccc(C)n3)[C@@]1([H])CCN2Cc1ccco1	35.78%
CC(=O)N1CCCN(C(=O)NCc2ccc(-c3ccn[nH]3)cc2)CC1	-7.027%
CC(C)C(C#N)N1CCN(C(=O)c2cc(-c3ccccn3)no2)CC1 (stereo not drawn)	-24.94%
CC(C)NC(=O)N1CCC2(CC(=O)N(c3cccc(F)c3)C2)C1 (stereo not drawn)	11.86%
CCNC(=O)N1CCC(NC(=O)NCCc2ccc(C)cc2C)C1 (stereo not drawn)	6.062%
Cl.Cn1ccnc1Sc1ccc(N)cn1	41.36%
Cc1nn(C)c(C)c1CC(=O)N1CCCC(n2ccnc2C)C1 (stereo not drawn)	-18.47%
COc1cccc2c1OCC(CNC(=O)Cn1ccnc1C)C2 (stereo not drawn)	13.18%
Cc1cnn(CCNCCCOc2ccc(C#N)cc2)c1	10.23%
CN1C2(CCN(Cc3ccc(F)cc3)C2)c2ccccc2S1(=O)=O (stereo not drawn)	-5.224%
CCCn1cnnc1CNC(=O)CC1C(=O)NCCN1C(C)C (stereo not drawn)	-43.76%
CS(=O)(=O)c1ccc(NC(=O)NCc2ccc(F)cc2)cn1	17.86%
O=C(O)C(F)(F)F.[H][C@@]12CCCO[C@]1([H])[C@H](NS(C)(=O)=O)CN(Cc1c(C)noc1C)C2	18.37%
CN(C)c1ccc(C(=O)N2CCC(c3cc4ncccc4[nH]3)CC2)cc1	-1.538%
CCn1cnnc1CNC(=O)N1CCC(C)CC1	-25.58%
Cc1ccc(CN2CCC3(CCC3NC(=O)c3ccn(C)c3)CC2)s1.O=C(O)C(F)(F)F (stereo not drawn)	6.93%
CN(Cc1cccnc1)C1CC2(CCN(C(=O)c3ccnnc3)CC2)C1	8.987%
[H][C@@]12CS(=O)(=O)C[C@]1([H])N(C(=O)CCC(F)(F)F)CCN2Cc1[nH]cnc1C	-20.76%
CC(C)(O)CN1CCN(C(=O)C2CSc3ccccc3O2)CC1 (stereo not drawn)	20.05%
COc1ccccc1CNC(Cn1cncn1)c1ccccc1 (stereo not drawn)	1.354%
Cc1ccnc(CC(C)N(C)Cc2ccc3c(c2)OCCO3)c1 (stereo not drawn)	26.09%
CCOC(=O)C1CCN(CCCc2nnnn2-c2ccccc2)CC1	28.72%
N#Cc1cccc(S(=O)(=O)N(CC2CCC2)c2cn[nH]c2)c1	-2.911%
Cc1noc(C)c1CN(C)c1nccc(C(F)(F)F)n1	7.469%
CN1CC2(CCN(C(=O)Cn3ncc4ccccc4c3=O)CC2)OC1=O	4.079%
CC(C)Oc1ccc(-c2csc(Cn3ccc(=O)[nH]c3=O)n2)cc1	34.99%
[H][C@@]12C[C@H](C(=O)N3CCCCO3)CN(C(=O)c3ccoc3C)[C@]1([H])CCO2	-4.693%
CCNC(=O)N1CCC(NC(=O)NCCCc2cccc(F)c2)C1 (stereo not drawn)	4.416%
CCc1ncncc1C(=O)NCCN1CCC(C)CC1	9.62%
CC(=O)N1CCC(c2nccnc2Nc2cnccn2)CC1	-53.79%
CCOCCC1(CNC(=O)c2ccncc2Cl)CCC1	19.79%
CC[C@H](C)Nc1ncc(-c2ccn(C3CCN(C(C)=O)CC3)n2)cn1	19.63%
CC(C)COC(C)C(=O)N1CCCCCC1 (stereo not drawn)	29.78%
CC(C)CSCCCNC(=O)C1CCOC1 (stereo not drawn)	-0.8177%
CN(Cc1cccnc1)C[C@H]1CC[C@@H](Cc2ccc3c(cnn3C)c2)O1	16.99%
CNC(=O)C(c1cccc(Cl)c1)C(C)C (stereo not drawn)	-13.06%
COCCNC(=O)c1sc2ccccc2c1C1CCC(CN)CC1.Cl (stereo not drawn)	-3.556%

Once more, the final 4:

CC(C)CSCCCNC(=O)C1CCOC1 (stereo not drawn) gave -0.8177%.
CN(Cc1cccnc1)C[C@H]1CC[C@@H](Cc2ccc3c(cnn3C)c2)O1 gave 16.99%.
CNC(=O)C(c1cccc(Cl)c1)C(C)C (stereo not drawn) gave -13.06%.
COCCNC(=O)c1sc2ccccc2c1C1CCC(CN)CC1.Cl (stereo not drawn) gave -3.556%.